The assay has as its target FLAG-tagged β-catenin (mouse) (UniProt Q02248). In words: affinity purification with mass spectrometry.

Amino acid sequences for entries named in this document (tags omitted).
UniProt Q02248: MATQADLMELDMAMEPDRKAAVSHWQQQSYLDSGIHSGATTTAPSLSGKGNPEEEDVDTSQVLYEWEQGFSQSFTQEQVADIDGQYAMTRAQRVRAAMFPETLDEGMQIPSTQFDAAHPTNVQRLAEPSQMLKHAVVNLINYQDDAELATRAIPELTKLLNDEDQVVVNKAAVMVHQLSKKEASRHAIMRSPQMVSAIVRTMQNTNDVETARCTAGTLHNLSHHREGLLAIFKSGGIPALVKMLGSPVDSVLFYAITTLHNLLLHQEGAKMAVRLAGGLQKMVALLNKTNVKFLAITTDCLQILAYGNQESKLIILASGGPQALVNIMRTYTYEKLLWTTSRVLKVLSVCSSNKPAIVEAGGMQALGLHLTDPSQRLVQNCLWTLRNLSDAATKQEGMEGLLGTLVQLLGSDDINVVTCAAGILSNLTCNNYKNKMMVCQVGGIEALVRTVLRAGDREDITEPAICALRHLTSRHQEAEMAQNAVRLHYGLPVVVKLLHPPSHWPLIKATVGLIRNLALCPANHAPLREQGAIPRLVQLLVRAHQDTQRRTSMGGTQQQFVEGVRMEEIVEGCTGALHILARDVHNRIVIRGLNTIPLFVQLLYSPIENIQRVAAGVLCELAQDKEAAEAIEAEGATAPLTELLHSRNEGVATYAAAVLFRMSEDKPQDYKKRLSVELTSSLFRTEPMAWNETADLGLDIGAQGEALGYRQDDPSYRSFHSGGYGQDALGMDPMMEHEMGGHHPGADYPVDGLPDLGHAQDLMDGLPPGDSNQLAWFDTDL
UniProt Q03267: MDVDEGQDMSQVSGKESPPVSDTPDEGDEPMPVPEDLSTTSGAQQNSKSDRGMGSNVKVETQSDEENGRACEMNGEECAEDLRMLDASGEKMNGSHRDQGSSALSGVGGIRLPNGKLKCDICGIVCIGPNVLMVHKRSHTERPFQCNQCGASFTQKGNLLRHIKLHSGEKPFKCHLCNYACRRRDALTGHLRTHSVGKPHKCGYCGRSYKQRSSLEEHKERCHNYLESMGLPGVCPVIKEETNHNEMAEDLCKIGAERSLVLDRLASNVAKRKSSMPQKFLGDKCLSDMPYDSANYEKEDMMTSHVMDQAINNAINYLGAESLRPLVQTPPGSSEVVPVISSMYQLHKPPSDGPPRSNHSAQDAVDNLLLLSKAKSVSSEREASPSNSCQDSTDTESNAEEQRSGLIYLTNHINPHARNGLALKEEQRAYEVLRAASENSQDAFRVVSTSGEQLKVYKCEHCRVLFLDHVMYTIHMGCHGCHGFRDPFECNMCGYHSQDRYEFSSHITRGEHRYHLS
UniProt O08900: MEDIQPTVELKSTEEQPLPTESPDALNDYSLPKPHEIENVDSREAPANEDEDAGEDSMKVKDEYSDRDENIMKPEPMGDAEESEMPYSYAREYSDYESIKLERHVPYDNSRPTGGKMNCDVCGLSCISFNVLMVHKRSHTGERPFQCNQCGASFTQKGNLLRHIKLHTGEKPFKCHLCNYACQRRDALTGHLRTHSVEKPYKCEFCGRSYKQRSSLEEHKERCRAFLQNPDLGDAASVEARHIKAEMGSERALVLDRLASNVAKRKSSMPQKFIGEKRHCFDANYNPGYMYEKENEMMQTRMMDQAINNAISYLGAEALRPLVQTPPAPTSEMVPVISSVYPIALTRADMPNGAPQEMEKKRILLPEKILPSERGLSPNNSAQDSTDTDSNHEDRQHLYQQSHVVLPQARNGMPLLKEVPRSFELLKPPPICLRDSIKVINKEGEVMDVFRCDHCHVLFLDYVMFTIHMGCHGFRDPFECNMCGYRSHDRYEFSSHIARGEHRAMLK

No constants are given. Whether binding was seen depends on the method and setting. Binding seen in cells or lysates may run through a third protein. Here binding means that the protein was enriched with, or labelled near, the bait; the list need not be complete.

For the substance “Ikzf1 (Ikaros) (from UniProt Q03267 1-517)”, the binding entry is “binds”.
For “Ikzf3 (Aiolos) (from UniProt O08900 1-507)”, the binding entry is recorded as “binds”.

Values taken from article doi:10.1101/2020.03.12.989277.
